By UniProt entry, the sequences of proteins in these tests, tags left out. Where a name states a change or a piece, a line headed by the entry shows the natural chain unless it says otherwise.
UniProt O75164: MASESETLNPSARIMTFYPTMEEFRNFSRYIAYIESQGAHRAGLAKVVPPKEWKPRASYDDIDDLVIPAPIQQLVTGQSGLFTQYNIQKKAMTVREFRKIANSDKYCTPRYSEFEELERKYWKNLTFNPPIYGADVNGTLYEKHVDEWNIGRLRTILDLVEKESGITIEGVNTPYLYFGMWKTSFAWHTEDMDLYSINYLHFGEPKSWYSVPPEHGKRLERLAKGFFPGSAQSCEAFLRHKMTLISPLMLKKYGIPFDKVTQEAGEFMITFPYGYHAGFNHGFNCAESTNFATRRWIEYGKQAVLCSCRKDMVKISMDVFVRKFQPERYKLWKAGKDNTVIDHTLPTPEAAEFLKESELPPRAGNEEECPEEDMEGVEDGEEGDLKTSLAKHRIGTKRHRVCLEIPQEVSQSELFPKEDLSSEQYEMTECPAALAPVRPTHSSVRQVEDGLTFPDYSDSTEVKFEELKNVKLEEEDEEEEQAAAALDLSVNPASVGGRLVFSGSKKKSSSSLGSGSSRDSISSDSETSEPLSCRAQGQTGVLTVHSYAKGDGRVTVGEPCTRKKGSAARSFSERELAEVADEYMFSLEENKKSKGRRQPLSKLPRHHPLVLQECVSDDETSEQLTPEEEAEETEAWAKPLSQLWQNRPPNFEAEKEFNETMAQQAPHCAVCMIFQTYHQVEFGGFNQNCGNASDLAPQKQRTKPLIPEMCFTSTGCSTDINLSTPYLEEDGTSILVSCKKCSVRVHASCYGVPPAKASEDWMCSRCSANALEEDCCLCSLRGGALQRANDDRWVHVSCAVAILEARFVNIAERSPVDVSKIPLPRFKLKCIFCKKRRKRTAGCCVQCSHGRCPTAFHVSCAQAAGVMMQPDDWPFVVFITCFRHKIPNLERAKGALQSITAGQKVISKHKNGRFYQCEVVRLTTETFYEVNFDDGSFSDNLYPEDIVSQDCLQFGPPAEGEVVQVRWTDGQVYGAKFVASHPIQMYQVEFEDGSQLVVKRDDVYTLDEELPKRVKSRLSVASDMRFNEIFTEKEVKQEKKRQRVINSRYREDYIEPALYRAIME
UniProt O95757: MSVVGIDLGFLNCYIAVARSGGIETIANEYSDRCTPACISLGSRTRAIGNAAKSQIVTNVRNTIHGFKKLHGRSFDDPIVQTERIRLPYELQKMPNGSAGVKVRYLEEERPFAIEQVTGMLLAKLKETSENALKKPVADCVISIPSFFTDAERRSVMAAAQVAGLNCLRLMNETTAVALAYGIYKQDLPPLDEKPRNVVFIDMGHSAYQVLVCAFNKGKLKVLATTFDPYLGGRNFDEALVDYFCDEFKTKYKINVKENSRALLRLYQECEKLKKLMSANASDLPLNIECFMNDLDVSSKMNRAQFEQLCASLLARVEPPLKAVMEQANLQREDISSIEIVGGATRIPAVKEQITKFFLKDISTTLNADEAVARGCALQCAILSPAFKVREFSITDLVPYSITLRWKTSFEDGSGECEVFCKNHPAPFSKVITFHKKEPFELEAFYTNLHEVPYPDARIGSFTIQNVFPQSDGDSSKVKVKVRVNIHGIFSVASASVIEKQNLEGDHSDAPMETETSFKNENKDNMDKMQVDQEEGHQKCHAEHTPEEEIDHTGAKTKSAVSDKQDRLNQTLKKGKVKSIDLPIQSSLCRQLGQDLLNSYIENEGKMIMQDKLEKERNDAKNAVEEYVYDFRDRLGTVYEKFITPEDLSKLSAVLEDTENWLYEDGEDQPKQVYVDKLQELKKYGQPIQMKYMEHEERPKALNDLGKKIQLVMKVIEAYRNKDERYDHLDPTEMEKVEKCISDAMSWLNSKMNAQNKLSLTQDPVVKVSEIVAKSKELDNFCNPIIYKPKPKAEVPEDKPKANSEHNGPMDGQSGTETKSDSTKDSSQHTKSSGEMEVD
UniProt Q8IU81: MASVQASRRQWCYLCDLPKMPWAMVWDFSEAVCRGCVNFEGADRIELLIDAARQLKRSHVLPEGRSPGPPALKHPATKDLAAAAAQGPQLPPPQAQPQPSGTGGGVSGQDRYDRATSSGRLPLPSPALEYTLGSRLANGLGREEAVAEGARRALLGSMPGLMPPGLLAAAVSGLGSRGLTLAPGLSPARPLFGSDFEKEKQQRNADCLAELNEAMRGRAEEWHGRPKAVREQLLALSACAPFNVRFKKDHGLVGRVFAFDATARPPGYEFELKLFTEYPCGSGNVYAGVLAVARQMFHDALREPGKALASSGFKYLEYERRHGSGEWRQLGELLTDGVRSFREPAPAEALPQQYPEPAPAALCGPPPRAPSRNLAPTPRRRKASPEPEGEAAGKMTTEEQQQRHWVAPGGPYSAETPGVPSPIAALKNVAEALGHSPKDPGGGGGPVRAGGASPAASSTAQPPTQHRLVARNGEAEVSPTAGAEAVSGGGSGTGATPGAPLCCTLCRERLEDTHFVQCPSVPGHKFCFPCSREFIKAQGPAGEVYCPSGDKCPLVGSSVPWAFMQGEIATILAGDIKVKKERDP
UniProt P31943: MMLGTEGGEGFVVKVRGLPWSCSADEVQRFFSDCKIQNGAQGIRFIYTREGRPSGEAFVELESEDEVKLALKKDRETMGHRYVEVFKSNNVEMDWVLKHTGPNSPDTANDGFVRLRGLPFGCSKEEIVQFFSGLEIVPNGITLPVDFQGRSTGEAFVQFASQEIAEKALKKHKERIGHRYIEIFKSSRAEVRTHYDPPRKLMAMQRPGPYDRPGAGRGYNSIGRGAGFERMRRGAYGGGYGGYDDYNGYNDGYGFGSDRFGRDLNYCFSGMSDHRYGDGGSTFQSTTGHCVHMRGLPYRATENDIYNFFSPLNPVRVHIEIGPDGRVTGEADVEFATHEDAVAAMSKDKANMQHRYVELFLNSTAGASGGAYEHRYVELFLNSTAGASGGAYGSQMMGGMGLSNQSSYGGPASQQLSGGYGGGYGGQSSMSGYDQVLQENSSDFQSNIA
UniProt Q00839, whole entry: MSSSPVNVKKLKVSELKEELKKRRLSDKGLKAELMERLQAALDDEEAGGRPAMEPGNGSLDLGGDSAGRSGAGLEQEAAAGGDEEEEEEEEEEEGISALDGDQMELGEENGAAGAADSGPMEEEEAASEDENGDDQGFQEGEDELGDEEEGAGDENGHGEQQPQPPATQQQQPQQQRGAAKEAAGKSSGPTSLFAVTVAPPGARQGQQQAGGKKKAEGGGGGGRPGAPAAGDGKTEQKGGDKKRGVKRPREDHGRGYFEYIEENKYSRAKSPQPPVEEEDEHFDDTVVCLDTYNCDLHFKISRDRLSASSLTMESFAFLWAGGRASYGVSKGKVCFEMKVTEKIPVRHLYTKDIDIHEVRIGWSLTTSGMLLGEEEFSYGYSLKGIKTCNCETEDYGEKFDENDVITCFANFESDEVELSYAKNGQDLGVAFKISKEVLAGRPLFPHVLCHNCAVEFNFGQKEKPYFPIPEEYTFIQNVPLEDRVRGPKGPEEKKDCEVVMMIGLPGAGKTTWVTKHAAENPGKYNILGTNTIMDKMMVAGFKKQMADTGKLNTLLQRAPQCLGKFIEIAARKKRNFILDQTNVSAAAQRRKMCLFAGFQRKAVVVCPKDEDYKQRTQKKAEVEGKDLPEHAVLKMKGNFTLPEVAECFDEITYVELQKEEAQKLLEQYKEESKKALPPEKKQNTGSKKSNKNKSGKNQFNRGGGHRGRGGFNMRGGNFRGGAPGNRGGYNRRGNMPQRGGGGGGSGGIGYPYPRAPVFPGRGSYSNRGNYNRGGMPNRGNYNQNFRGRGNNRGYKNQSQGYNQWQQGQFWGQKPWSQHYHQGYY
UniProt Q70UQ0: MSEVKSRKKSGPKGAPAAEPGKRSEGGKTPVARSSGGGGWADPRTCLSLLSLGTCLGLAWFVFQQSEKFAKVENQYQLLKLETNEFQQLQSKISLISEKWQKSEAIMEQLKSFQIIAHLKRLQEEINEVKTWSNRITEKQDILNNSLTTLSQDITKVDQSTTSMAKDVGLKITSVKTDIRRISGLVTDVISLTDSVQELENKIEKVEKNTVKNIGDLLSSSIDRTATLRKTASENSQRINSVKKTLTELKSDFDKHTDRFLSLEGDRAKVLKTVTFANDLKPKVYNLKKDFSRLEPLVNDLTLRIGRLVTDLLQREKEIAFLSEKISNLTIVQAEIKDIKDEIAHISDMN
UniProt P00492: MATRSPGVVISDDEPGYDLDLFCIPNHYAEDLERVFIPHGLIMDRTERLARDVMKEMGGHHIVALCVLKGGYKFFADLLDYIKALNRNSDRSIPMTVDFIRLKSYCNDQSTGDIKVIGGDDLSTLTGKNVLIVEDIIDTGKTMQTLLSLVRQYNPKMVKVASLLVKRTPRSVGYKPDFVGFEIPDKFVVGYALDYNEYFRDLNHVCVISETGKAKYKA
UniProt P52597: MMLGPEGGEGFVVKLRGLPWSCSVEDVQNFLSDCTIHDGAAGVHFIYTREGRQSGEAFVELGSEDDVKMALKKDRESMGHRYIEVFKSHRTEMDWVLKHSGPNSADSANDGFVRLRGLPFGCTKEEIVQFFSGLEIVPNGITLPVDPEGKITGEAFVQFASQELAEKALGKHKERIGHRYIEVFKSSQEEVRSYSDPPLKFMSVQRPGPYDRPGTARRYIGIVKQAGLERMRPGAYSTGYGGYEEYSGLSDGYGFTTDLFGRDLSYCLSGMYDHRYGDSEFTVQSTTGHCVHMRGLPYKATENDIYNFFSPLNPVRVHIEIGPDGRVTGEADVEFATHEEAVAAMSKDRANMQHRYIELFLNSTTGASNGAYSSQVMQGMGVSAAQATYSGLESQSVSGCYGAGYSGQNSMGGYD
UniProt O15397, whole entry: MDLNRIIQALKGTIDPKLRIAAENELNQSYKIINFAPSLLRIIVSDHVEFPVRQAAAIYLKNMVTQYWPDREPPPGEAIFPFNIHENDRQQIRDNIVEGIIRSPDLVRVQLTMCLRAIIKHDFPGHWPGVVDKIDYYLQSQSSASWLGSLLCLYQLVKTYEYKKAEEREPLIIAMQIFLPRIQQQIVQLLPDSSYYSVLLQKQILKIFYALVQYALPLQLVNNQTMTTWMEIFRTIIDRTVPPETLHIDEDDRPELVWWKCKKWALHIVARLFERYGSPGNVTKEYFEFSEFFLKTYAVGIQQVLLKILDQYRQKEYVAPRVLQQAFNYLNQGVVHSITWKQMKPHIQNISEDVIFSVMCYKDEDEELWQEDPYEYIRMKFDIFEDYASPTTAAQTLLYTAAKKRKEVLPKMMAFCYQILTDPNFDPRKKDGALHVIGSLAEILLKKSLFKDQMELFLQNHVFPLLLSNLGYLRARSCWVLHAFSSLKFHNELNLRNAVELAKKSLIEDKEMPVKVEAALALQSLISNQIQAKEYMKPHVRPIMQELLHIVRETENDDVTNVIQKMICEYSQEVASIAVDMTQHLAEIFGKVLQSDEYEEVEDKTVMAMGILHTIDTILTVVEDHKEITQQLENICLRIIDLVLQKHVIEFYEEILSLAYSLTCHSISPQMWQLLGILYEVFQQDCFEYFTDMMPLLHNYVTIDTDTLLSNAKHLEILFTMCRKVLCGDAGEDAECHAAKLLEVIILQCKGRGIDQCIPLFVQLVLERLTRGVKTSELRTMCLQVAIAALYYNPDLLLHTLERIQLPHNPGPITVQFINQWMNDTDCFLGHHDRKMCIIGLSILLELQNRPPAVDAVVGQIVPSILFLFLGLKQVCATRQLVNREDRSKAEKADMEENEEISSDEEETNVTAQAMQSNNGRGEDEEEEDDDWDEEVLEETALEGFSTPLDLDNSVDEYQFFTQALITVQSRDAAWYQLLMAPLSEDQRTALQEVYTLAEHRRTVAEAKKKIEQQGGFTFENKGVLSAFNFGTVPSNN
UniProt Q9Y597: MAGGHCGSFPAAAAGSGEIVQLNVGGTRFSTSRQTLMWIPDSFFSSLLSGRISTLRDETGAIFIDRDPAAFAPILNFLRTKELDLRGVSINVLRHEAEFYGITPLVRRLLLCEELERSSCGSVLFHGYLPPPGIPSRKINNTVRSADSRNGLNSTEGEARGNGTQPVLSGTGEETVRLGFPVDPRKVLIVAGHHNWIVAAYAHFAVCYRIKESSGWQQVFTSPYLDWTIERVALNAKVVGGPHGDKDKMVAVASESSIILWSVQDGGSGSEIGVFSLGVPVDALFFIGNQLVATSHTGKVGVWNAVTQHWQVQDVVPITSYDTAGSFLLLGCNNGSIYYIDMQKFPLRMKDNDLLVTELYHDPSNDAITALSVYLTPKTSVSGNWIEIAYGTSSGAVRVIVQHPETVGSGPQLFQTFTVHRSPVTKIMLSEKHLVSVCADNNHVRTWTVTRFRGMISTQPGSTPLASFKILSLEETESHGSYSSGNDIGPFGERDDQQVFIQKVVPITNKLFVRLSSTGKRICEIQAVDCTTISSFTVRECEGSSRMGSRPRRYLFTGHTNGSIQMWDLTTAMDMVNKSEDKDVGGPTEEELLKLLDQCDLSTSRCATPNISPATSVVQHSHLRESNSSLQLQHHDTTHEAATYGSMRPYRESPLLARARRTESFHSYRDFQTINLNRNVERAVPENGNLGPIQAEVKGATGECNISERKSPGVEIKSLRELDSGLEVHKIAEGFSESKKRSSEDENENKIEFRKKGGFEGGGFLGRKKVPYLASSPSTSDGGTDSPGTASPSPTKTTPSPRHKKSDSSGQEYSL

The other results are listed elsewhere or left out.
These targets were tested with COc1ccc(Cn2ccc3ccc(C(=O)NO)cc32)cc1 (assay: dose-dependent thermal stabilisation call (2D-TPP, DLPTP, 10% FDR) (binary (1 = stabilised)); higher = stabilised by the compound). Conditions: system: HL-60 intact cells; concentration range 0.04-10 µM.
JMJD2A (UniProt O75164) was tested, and the “dose-dependent thermal stabilisation call” value was inactive: 0. With IPO11 (UniProt Q9UI26) the “dose-dependent thermal stabilisation call” value was inactive: 0. With KHDRBS1 (UniProt Q07666) the “dose-dependent thermal stabilisation call” value was inactive: 0. With IKZF1 (UniProt Q13422) the “dose-dependent thermal stabilisation call” value was inactive: 0. For HSPA5 (UniProt P11021), the “dose-dependent thermal stabilisation call” value was inactive: 0. In the case of HVCN1 (UniProt Q96D96), the “dose-dependent thermal stabilisation call” value is reported as inactive: 0. In the case of INPP1 (UniProt P49441), the “dose-dependent thermal stabilisation call” value is reported as inactive: 0. With HS1BP3 (UniProt Q53T59) the “dose-dependent thermal stabilisation call” value was inactive: 0. With HNRNPUL1 (UniProt Q9BUJ2) the “dose-dependent thermal stabilisation call” value was inactive: 0. In the case of HSPA4L (UniProt O95757), the “dose-dependent thermal stabilisation call” value is reported as inactive: 0. For ISG20L2 (UniProt Q9H9L3), the “dose-dependent thermal stabilisation call” value was inactive: 0. In the case of ITPK1 (UniProt Q13572), the “dose-dependent thermal stabilisation call” value is reported as inactive: 0. HSDL1 (UniProt Q3SXM5) was tested, and the “dose-dependent thermal stabilisation call” value was inactive: 0. With ICT1 (UniProt Q14197) the “dose-dependent thermal stabilisation call” value was inactive: 0. IRF2BP1 (UniProt Q8IU81) was tested, and the “dose-dependent thermal stabilisation call” value was inactive: 0. For IWS1 (UniProt Q96ST2), the “dose-dependent thermal stabilisation call” value was inactive: 0. For ITPR1 (UniProt Q14643), the “dose-dependent thermal stabilisation call” value was inactive: 0. HNRNPH1 (UniProt P31943) was tested, and the “dose-dependent thermal stabilisation call” value was inactive: 0. In the case of HNRNPU (UniProt Q00839), the “dose-dependent thermal stabilisation call” value is reported as inactive: 0. KIAA0430 (UniProt Q9Y4F3) was tested, and the “dose-dependent thermal stabilisation call” value was inactive: 0. With HNRNPA3 (UniProt P51991) the “dose-dependent thermal stabilisation call” value was inactive: 0. With IKIP (UniProt Q70UQ0) the “dose-dependent thermal stabilisation call” value was inactive: 0. In the case of HPRT1 (UniProt P00492), the “dose-dependent thermal stabilisation call” value is reported as inactive: 0. With HNRNPF (UniProt P52597) the “dose-dependent thermal stabilisation call” value was inactive: 0. With ITM2C (UniProt Q9NQX7) the “dose-dependent thermal stabilisation call” value was inactive: 0. In the case of IPO8 (UniProt O15397), the “dose-dependent thermal stabilisation call” value is reported as inactive: 0. For HTATIP2 (UniProt Q9BUP3), the “dose-dependent thermal stabilisation call” value was inactive: 0. With KCTD3 (UniProt Q9Y597) the “dose-dependent thermal stabilisation call” value was inactive: 0. For HOMER3 (UniProt Q9NSC5), the “dose-dependent thermal stabilisation call” value was inactive: 0. For ICA1 (UniProt Q05084), the “dose-dependent thermal stabilisation call” value was inactive: 0. With IDH3G (UniProt P51553) the “dose-dependent thermal stabilisation call” value was inactive: 0. In the case of KIAA0174 (UniProt P53990), the “dose-dependent thermal stabilisation call” value is reported as inactive: 0. With KDELR1 (UniProt P24390) the “dose-dependent thermal stabilisation call” value was inactive: 0. IER3IP1 (UniProt Q9Y5U9) was tested, and the “dose-dependent thermal stabilisation call” value was inactive: 0. For JUN (UniProt P05412), the “dose-dependent thermal stabilisation call” value was inactive: 0. With ISCU (UniProt Q9H1K1) the “dose-dependent thermal stabilisation call” value was inactive: 0. In the case of ITGB2 (UniProt P05107), the “dose-dependent thermal stabilisation call” value is reported as inactive: 0.

Reference: the supplement of paper PMC7666118
